Reference: PubChem BioAssay AID2718 (Broad Institute, 2010)
Screen size: about 320,000 compounds; about 480 (0.15%) were called active. This list was built around the results that the source calls inconclusive (neither active nor inactive); the mix of calls is not that of the screen. Cut-off read from the data, not from the text of the source: active = inhibition above about 26% (passing the limit was not always enough); inconclusive = no clear call, values can overlap the other calls.

Amino acid sequences for entries named in this document (tags omitted). A change or cut given only in a name is not applied to a line headed by its entry.
UniProt O15379: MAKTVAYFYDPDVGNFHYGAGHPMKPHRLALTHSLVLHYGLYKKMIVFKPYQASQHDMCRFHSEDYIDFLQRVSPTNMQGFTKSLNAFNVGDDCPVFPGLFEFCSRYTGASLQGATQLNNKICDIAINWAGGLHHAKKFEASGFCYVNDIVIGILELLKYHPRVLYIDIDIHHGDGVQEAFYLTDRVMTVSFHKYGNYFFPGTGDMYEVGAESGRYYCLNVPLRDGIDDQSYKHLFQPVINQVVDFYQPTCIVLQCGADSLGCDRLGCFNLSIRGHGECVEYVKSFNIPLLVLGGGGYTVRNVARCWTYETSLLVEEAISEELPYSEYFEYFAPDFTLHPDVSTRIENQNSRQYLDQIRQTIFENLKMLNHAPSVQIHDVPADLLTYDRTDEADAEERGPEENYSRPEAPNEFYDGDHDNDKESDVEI

biological target: Histone deacetylase 3 (Homo sapiens) (UniProt O15379); assay: HDAC3 deacetylase inhibitors, primary screen, biochemical, fluorescence, cell-free homogeneous (AID 2718); conditions: recombinant HDAC3, fluorogenic peptide/trypsin coupled, at 8.3 µM, active compounds read high

SMILES	inhibition
CC(C)=CCCC(C)CN1CCC(n2nccc2NC(=O)c2ccccc2)CC1 (centres undefined)	inconclusive: 16%
COCCOC(=O)/C(=C/c1ccc(OC(=O)c2ccccc2)cc1)C(C)=O	inconclusive: 31.7%
CCn1c(-c2csc3ccccc23)n[nH]c1=S	inactive: -0.111%
Cn1cc(CCCC(=O)NCc2ccccc2)c2ccccc21	inconclusive: 7.83%
CCOC(=O)c1nc(SC)n(C)c1C(=O)OCC	inactive: -0.00088%
COc1cc(C(=O)Nc2cccc(-c3nc4cc(C)ccc4o3)c2C)cc(OC)c1OC	inactive: -0.654%
COc1ccc(C(=O)NC(=S)NC2CCSC2=O)cc1 (centres undefined)	inconclusive: 15.5%
CCn1c2ccccc2c2cc(NS(=O)(=O)c3ccc(C)cc3)ccc21	inconclusive: 9.75%
COc1ccc(CNC(=O)CN2C(=O)NC(C)(c3ccc(Cl)cc3)C2=O)cc1 (centres undefined)	inactive: -1.31%
O=C(/C=C/c1ccccc1)N/C(=C/c1ccccc1)C(=O)N1CCCCC1	inactive: 4.66%
Cc1cc(N2CCCC2=O)ccc1S(=O)(=O)N1CCOCC1	inactive: 1.5%
CC1(CCc2ccccc2)NC(=O)N(CC(=O)Nc2ccc3c(c2)OCCO3)C1=O (centres undefined)	inconclusive: 27.9%
CCCCOc1ccc(NC(=O)Nc2nnc(C)s2)cc1	inactive: 9.69%
CCCCc1nc(C(N)=O)c2[nH]c(=O)n(-c3ccc(OCC)cc3)c2n1	inconclusive: 26.5%
Cc1onc(-c2ccccc2)c1NC(=O)N(CCC(=O)O)Cc1ccccc1	inconclusive: 10%
CCN1C/C(=C/c2ccc(N3CCOCC3)cc2)C(=O)/C(=C/c2ccc(N3CCOCC3)cc2)C1	inconclusive: 24%
COc1ccccc1C(=O)NCCC(=O)NCCCSc1ccccc1	inconclusive: 17.6%
Cc1[nH]c2ccccc2c1N=Nc1cc(C(=O)O)cc(C(=O)O)c1	inactive: 3.96%
O=C(Oc1ccc(-c2nnco2)cc1)c1ccco1	active: 63.2%
CC(C)C[C@H](NC(=O)c1[nH]cnc1C(=O)N[C@@H](C)c1ccccc1)C(=O)OC(C)(C)C	inconclusive: 29%
CC(=O)Nc1ccccc1OCC(=O)NCC(F)(F)F	inactive: 3.93%
O=S(=O)(NCCc1ccccn1)c1cc(Cl)cc(Cl)c1O	inconclusive: 25.2%
O=C(Cn1nc(C(=O)O)c2ccccc2c1=O)Nc1ccccc1C(F)(F)F	inactive: 0.103%

SMILES	inhibition
COC(=O)[C@@]12CCCCN1[C@H](c1ccc(-c3ccc(OC)cc3)cc1)[C@@H]1C(=O)N(C)C(=O)[C@@H]12	inconclusive: 14%
N=C1CCCN1CC(=O)c1ccc(Br)cc1	inactive: 0.109%
CCN(c1ccccc1)S(=O)(=O)c1ccc(C(=O)Nc2ncccc2O)cc1	inconclusive: 62.4%
Cc1ccc(NC(=O)Nc2ccccc2)cc1[N+](=O)[O-]	inconclusive: 25.8%
CN(C)c1ccc(/C=N/NC(=O)CNC(=O)c2ccco2)cc1	inactive: -11.2%
COc1ccccc1/C=C/C=N/n1c(-c2ccncc2)n[nH]c1=S	inconclusive: 18.4%
COc1ccccc1-[n+]1c(C)cc(/C=C2\Sc3ccccc3N2C)cc1C	inconclusive: 25.9%
CCOC(=O)c1c(C)[nH]c(N=Nc2ccccc2)c1C	inconclusive: 25.2%
CCOC(=O)CSc1ncc(-c2cccc(Cl)c2)cn1	inconclusive: 22.8%
O=C(CN1C(=O)/C(=C/c2ccccc2F)Oc2ccccc21)N1CCN(c2ccccn2)CC1	inconclusive: 10.9%
COC(=O)CC(=O)Cc1nc(N)nc(Nc2ccc(C)c(C)c2)n1	inconclusive: 24.3%
CC(C(=O)NC(C)(C)C)N1C(=O)c2cccc3cccc(c23)C1=O (centres undefined)	inconclusive: 15.7%
COc1ccc(/C=N/n2c(-c3cccs3)n[nH]c2=S)cc1	inconclusive: 23.5%
CCOC(=O)c1c(NC(=O)CSc2nnc(-c3ccccc3)o2)sc(C(C)=O)c1C	inconclusive: 21.9%
CCOc1ccccc1OCCOc1cccc(C(F)(F)F)c1	inconclusive: 23.1%
C=CCn1c(-c2cc(OC)c(OC)c(OC)c2)n[nH]c1=S	inconclusive: 12.2%
COc1ccc(-c2nc(NC(=O)c3ccc(OCC(=O)N4CCOCC4)c(OC)c3)sc2C)cc1	inactive: -1.04%
COc1ccc(C(=O)NC2CCN(C(=S)Nc3ccccc3C)CC2)cc1	inactive: -4.15%
CC1CCC2C(=O)N(c3ccc(S(=O)(=O)c4ccccc4)cc3)C(=O)C2C1 (centres undefined)	inconclusive: 13.8%
Cc1ccc2c(CC(=O)NCC3COc4ccccc4O3)coc2c1 (centres undefined)	inconclusive: 14.1%
COc1ccc(-n2ncc3c2CC(C)(C)CC3NC(=O)CCn2cncn2)cc1 (centres undefined)	inactive: -1.42%
O=C(CN1C(=O)C(=O)N(C2CCCC2)C1=O)Nc1cc(Cl)ccc1[N+](=O)[O-]	inconclusive: 13.3%
CSc1nc(-c2ccccc2)nn1C(=O)c1ccccc1	inconclusive: 23.6%

Quoted at random: 5 entries already listed.
SMILES	inhibition
O=C(Cn1nc(C(=O)O)c2ccccc2c1=O)Nc1ccccc1C(F)(F)F	inactive: 0.103%
CC(C(=O)NC(C)(C)C)N1C(=O)c2cccc3cccc(c23)C1=O (centres undefined)	inconclusive: 15.7%
CC1CCC2C(=O)N(c3ccc(S(=O)(=O)c4ccccc4)cc3)C(=O)C2C1 (centres undefined)	inconclusive: 13.8%
COc1ccc(-n2ncc3c2CC(C)(C)CC3NC(=O)CCn2cncn2)cc1 (centres undefined)	inactive: -1.42%
N=C1CCCN1CC(=O)c1ccc(Br)cc1	inactive: 0.109%

Remaining list, next part:

SMILES	inhibition
CCOC(=O)C1CCN(S(=O)(=O)c2ccc3c(c2)CC(C)N3C(=O)C2CC2)CC1 (centres undefined)	inactive: 1.7%
C[C@H](NC(=O)c1nc[nH]c1C(=O)N[C@H](C)c1ccccc1)C(=O)OC(C)(C)C	inconclusive: 17.6%
CN1N=C(C(F)(F)F)CC1=O	inconclusive: 16.9%
O=C1CC(c2nc3ccccc3[nH]2)CN1c1cccc(C(F)(F)F)c1 (centres undefined)	inconclusive: 13.6%
CC(C)Cn1c(SCC(=O)NCc2ccc(Cl)cc2)nnc1-c1cccc(S(=O)(=O)N2CCOCC2)c1	inconclusive: 17.7%
COc1ccc(-c2cc(=O)oc(-c3cccc(C)c3)n2)cc1	inactive: 0.973%
CC(C)N(C(=O)COC(=O)CCC(=O)c1cccs1)c1ccccc1	inconclusive: 13.7%
O=C(COC(=O)C1(c2ccccc2F)CCCC1)N1CCN(C(=O)c2ccco2)CC1	inactive: -4.52%
CCOC(=O)c1c2ccccc2[n+]([O-])n1CCO	inactive: -5.68%
CN(C(=O)CSc1nnc(-c2ccncc2)n1Cc1ccccc1)C1CCS(=O)(=O)C1 (centres undefined)	inactive: 0.746%
Cn1cnc([N+](=O)[O-])c1SCCO	inconclusive: 10.4%
CCC(C)(C)NC(=O)C1CCC(CNS(=O)(=O)c2cccc3nsnc23)CC1 (centres undefined)	inconclusive: 14.4%
Cc1ccc(C(=O)N2CCC(C)CC2)cc1C	inactive: -2.35%
CCn1c(N)c(C(=O)NCc2ccco2)sc1=S	inactive: 9.45%
CN(C)c1ccc(NC(=O)COC(=O)c2ccc3c(c2)OCO3)cc1	active: 33.4%
O=C(Nc1ccc(-c2cn3ccsc3n2)cc1)C1COc2ccccc2O1 (centres undefined)	inconclusive: 31.9%
CCc1ccc(/C=C/C(=O)C2C(=O)c3ccccc3C2=O)cc1	inconclusive: 23.4%
O=C(NCc1nnc(SCC(=O)N2CCCCC2)o1)c1c(F)cccc1Cl	inconclusive: 23.2%
COc1ccc(CCNC(=O)CSc2ccsc2[N+](=O)[O-])c(OC)c1	inconclusive: 14.3%
CCOC(=O)C1CCN(S(=O)(=O)c2ccc(NC(=O)c3ccco3)cc2)CC1	inconclusive: 25.4%
CCCCOc1ccc(NC(=O)CCSc2nccn2C)cc1	inactive: 5.09%
CCCN1C=CC(=C/C=C(\C#N)C(=O)OCC)C=C1	active: 30.4%
O=C(/C=C/c1cccs1)N1CCN(Cc2ccc3c(c2)OCO3)CC1	inconclusive: 19.8%

SMILES	inhibition
CC(=O)Nc1ccc(-c2nnn(CC(=O)Nc3ccc4c(c3)OCO4)n2)cc1Cl	inconclusive: 18.8%
O=C(/C=C/c1ccc([N+](=O)[O-])cc1)OCC(=O)N1CCCCCC1	inconclusive: 15.6%
CC1OC(Oc2ccc3ccc(=O)oc3c2-c2c(O)ccc3cc(Oc4ccc5ccc(=O)oc5c4)c(=O)oc23)C(O)C(O)C1O (centres undefined)	inconclusive: 21.2%
O=c1c(O[C@@H]2O[C@H](CO)C(O)C2O)c(-c2ccc(O)c(O)c2)oc2cc(O)cc(O)c12 (some centres undefined)	inconclusive: 18%
Cn1cnc([N+](=O)[O-])c1Sc1ncccc1N	inconclusive: 27.3%
CC(C)C[C@H](NC(=O)c1nc[nH]c1C(=O)NCc1ccc(CNC(=O)OC(C)(C)C)cc1)C(=O)OC(C)(C)C	active: 35.3%
COc1cc(OC)cc(-c2cc3ccc(F)cc3cn2)c1	inactive: 5.76%
CCC(Sc1nc(-c2ccccc2)cc(=O)[nH]1)C(=O)O (centres undefined)	inconclusive: 20.1%
Nc1nnnn1/N=C/c1cc(Cl)cc(Cl)c1O	inconclusive: 16.6%
CN(C)c1ccc(C(=O)/C=C/c2ccc(Br)cc2)cc1	inactive: -10.7%
Cc1ccc(C(=O)CC(=O)COc2ccc(Cl)cc2)cc1	inactive: 7.52%
COc1ccccc1-n1cc(-c2ccccc2)[nH]c1=S	inactive: 4.31%
CC(C)=CCN1CCN(Cc2cccc3c2OCO3)CC1CCO (centres undefined)	inconclusive: 15.7%
CC(=O)c1ccc(NC(=S)N2CCN(CCN3C(=O)c4cccc5cccc(c45)C3=O)CC2)cc1	inconclusive: 22.7%
COc1ccc(S(=O)(=O)N2CCN(C(=O)c3c(C)nn(-c4ccccc4)c3Cl)CC2)cc1	inconclusive: 26.4%
COc1ccc2nccc(/C=C/c3ccnc4ccc(OC)cc34)c2c1	inactive: -7.16%
Cc1cc(C(c2ccc(C)o2)c2ccc(C)o2)c(O)c([N+](=O)[O-])c1	inconclusive: 28%
C=C(C)COc1ccc(-c2[nH]ncc2Oc2cccc(OC)c2)c(O)c1	inconclusive: 24.3%
O=c1[nH]c(-c2cccnc2)nc2ccccc12	inactive: -2.79%
CCc1nn(CCCC(=O)NCc2ccc(OC(C)C)cc2)c(=O)c2cc3occc3n12	inconclusive: 18.9%
